Results are given in words; binding and its absence hold for the method and conditions named. Binding seen in cells or lysates may run through a third protein. Here binding means that the protein was enriched with, or labelled near, the bait; the list need not be complete. Each block holds one binder with its values, some of them ahead of it.
Biological target: FLAG-tagged AtpΘ (AtpΘ-3xFLAG) (Synechocystis sp. PCC 6803)
Test: affinity purification with mass spectrometry

binding: binds
B1: ATP synthase subunit b' (AtpF2) (protein, UniProt P27183 1-143)
chain: MFDFDATLPLMALQFVVLAFLLNAIFYKPMNKVLDERADYIRTNEEDARERLAKAKAITQEYEQQITDARRQSQAVIADAQAEARRLAAEKIAEAQRESQRQKETAAQEIEAQRQSALSSLEQEVAALSNQILHKLLGPELIK

binding: binds
B2: CmpC (protein, UniProt Q55462 1-667)
chain: MSLFVAVDNIDKVFSLTDGGEYIALKGINLEIKKGEFVSLIGHSGCGKSTLLNMIAGLDLPSEGIVTLEGQRIKQPGPDKMVIFQNYSLLPWLTVKQNIALAVDEVMKGASAAERKAIVEEHINLVGLGHAVDKRPGELSGGMKQRVAIARALAIRPKLLLLDEPFGALDALTRGNLQEQLMRICEQYQVTAVMVTHDVDEAVLLSDRIVMLTNGPGSNIGGILEVDIPRPRKRMEVVEHPSYYSLRSEIIYFLNQQKRIKKLRAKKTTAIARHGLEKVNLELGYVPLVACAPLVVAQEKGFFAKHGLDEVSLVRETSWRGIVDGIAGGYLDGAQMPAGMPTWLTAGGYREQSIPVVSALTMTRNGNAITLSKKLYDQGIYTAEDFRQLLLASDGDRHTLGMVHPSSMHNLLLRYWLAAHNINPDRDVHLKTIPPAQMVADLKAGTIDGYCVSEPWNLRASMEGAGFSIATDLEIWQNHPGKVLGVREDWAIAHPNTHVALVKALLEACAYCADPNHEMEIRELLATRQYLSTNIDYIHLGDPEGRTCRLGNPVEYSHHLFFGDQFNRPSRTEHLWMMTQMARWGDIPFPRNWVEILERVCRVGVFSTAARELGYDVNYQRQPIALFDGKVFNADDPIAYLNQTVIHRNFTIAEVHLDNPTPAPVFA

Source: publication doi:10.1101/2021.07.30.454416
